PubChem BioAssay AID1159578 | Peter MacCallum Cancer Centre – 2015
Purpose: 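Genome-wide hunt for genes controlling movement of lymphatic endothelial cells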 (primary screen). Cells: human lymphatic endothelial cells. Reagent: siRNA pool against human genes, 40 nM. Timing: 48 h after transfection. Measurement: 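High-content imaging of dye-stained cells in a scratch assay measures filled wound area and nuclei per well; duplicate means given as ratio to mock and robust z-score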. Reading the numbers: migration robust z-score: higher = faster migration into the scratch; migration relative to mock: higher = more scratch area covered than mock; nuclei per well: higher = more cells in the well. Active means: 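Pools averaging fewer than 3300 nuclei are never called; remaining pools count as changed when migration robust z lies outside -2 to 2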. Calls: active = migration changed; inactive = no migration change, or too few cells.
Shown is a random part of about 18,000 reagents tested. About 1,030 of all reagents (5.7%) were called active. 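Inactive calls also include pools with fewer than 3300 nuclei, whose migration was not assessed.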 Raw values vary from plate to plate and are shown uncorrected. Unmarked entries are inactive.

target gene	PubChem SID	migration robust z-score	migration class with cell-count check	migration relative to mock	nuclei per well, duplicate mean
SLC20A2	SID255352501	-0.8	migration z between -2 and 2; enough cells	0.65	5982
ARID1B	SID255359419	-1.64	migration z between -2 and 2; enough cells	0.46	5798
DPPA4	SID255358504	-1.25	migration z between -2 and 2; enough cells	0.55	6550
HEATR1	SID255358430	0.73	migration z between -2 and 2; enough cells	1.08	5676
ELOVL3	SID255360987	0.92	migration z between -2 and 2; enough cells	1.12	6322
SMR3A	SID255356855	0.52	migration z between -2 and 2; enough cells	1.02	5375
AMER1	SID255363071	-0.76	migration z between -2 and 2; enough cells	0.68	6866
TMEM98	SID255356620	-1.34	migration z between -2 and 2; enough cells	0.54	6179
CNGA4	SID255348990	-1.09	migration z between -2 and 2; enough cells	0.6	5581
ZDHHC6	SID255359934	-0.3	migration z between -2 and 2; enough cells	0.8	5532
PCYT1A	SID255351458	-0.64	migration z between -2 and 2; enough cells	0.68	5448
DEF6	SID255357344	-0.4	migration z between -2 and 2; enough cells	0.78	5798
DEFB119	SID255364384	0.52	migration z between -2 and 2; enough cells	1.02	4769
DHFR	SID255349296	-0.31	migration z between -2 and 2; enough cells	0.74	5527
TRAT1	SID255357378	-0.82	migration z between -2 and 2; enough cells	0.67	5040

Sorted by “nuclei per well, duplicate mean” (ascending): 5 of the entries above.
target gene	PubChem SID	migration robust z-score	migration class with cell-count check	migration relative to mock	nuclei per well, duplicate mean
DEFB119	SID255364384	0.52	migration z between -2 and 2; enough cells	1.02	4769
PCYT1A	SID255351458	-0.64	migration z between -2 and 2; enough cells	0.68	5448
ZDHHC6	SID255359934	-0.3	migration z between -2 and 2; enough cells	0.8	5532
CNGA4	SID255348990	-1.09	migration z between -2 and 2; enough cells	0.6	5581
DEF6	SID255357344	-0.4	migration z between -2 and 2; enough cells	0.78	5798

Next reagents follow:
target gene	PubChem SID	migration robust z-score	migration class with cell-count check	migration relative to mock	nuclei per well, duplicate mean
RGS1	SID255352110	-0.3	migration z between -2 and 2; enough cells	0.8	4334
GNG10	SID255349950	1.6	migration z between -2 and 2; enough cells	1.12	5900
OR4S1	SID255364517	1.02	migration z between -2 and 2; enough cells	1.15	7372
FXYD5	SID255357936	-1.09	under 3300 nuclei; migration not judged	0.6	3100
SLC50A1	SID255358976	-2.29 (active)	migration z below -2; enough cells	0.29	6393
NT5DC2	SID255360055	1.16	migration z between -2 and 2; enough cells	1.19	5942
FERMT1	SID255358718	-0.56	migration z between -2 and 2; enough cells	0.74	4148
LYG1	SID255362835	0.8	migration z between -2 and 2; enough cells	1.09	6162
PLD3	SID255356390	0.57	migration z between -2 and 2; enough cells	0.92	4580
SNF8	SID255355722	1.7	migration z between -2 and 2; enough cells	1.32	6194
HYKK	SID255362585	0.62	migration z between -2 and 2; enough cells	1.04	4905
FAM120AOS	SID255363656	0.2	migration z between -2 and 2; enough cells	0.94	5038
YWHAQ	SID255355490	1.35	migration z between -2 and 2; enough cells	1.07	5892
BBX	SID255359215	-0.54	migration z between -2 and 2; enough cells	0.74	4920
PTPN18	SID255356780	-0.86	migration z between -2 and 2; enough cells	0.64	5322
KRI1	SID255360089	1.83	migration z between -2 and 2; enough cells	1.36	5486
CFAP126	SID255364555	-0.54	migration z between -2 and 2; enough cells	0.75	4609
ABI1	SID255354735	-1.11	migration z between -2 and 2; enough cells	0.6	5514
KRTAP23-1	SID255364961	0.04	migration z between -2 and 2; enough cells	0.9	5184
KCNK18	SID255364989	0.24	migration z between -2 and 2; enough cells	0.85	6150
SCGB2A1	SID255350951	-0.73	migration z between -2 and 2; enough cells	0.7	3672
CTR9	SID255354438	-2.36 (active)	migration z below -2; enough cells	0.26	4842
SPACA7	SID255362543	1.5	migration z between -2 and 2; enough cells	1.27	5959
SH3BGR	SID255352398	-0.94	migration z between -2 and 2; enough cells	0.62	4994
